Reference: patent publication US8273726B2, “Compositions for treating and/or preventing diseases characterized by the presence of metal ions” (Brandeis University, priority 2002, dated 2012)
Some of these results come from one statement about several compounds together.

Test system: A-beta antigen
Assay: Slot blot of A-beta antigen extracted from Alzheimer's brain tissue sections (Example 8)
Set-up: species or system human

Row | SMILES | antigen extracted (text, range over several treatments) [fmol]
1 | CC(C#N)C[Si](C)(Cl)Cl (stereo not drawn) [CPMS, 2-cyanopropylmethyldichlorosilane] | 1.4 to 6.0
2 | C[Si](Cl)(Cl)CCC#N [CEMS, 2-cyanoethylmethyldichlorosilane] | 1.4 to 6.0
3 | CCC(C#N)C[Si](C)(Cl)Cl (stereo not drawn) [CBMS, 2-cyanobutylmethyldichlorosilane] | 1.4 to 6.0
